Laboratory results: paper PMC8583188

Biological target: T1, GUN1-cEYFP (Arabidopsis thaliana) (UniProt Q9SIC9)
T1 sequence: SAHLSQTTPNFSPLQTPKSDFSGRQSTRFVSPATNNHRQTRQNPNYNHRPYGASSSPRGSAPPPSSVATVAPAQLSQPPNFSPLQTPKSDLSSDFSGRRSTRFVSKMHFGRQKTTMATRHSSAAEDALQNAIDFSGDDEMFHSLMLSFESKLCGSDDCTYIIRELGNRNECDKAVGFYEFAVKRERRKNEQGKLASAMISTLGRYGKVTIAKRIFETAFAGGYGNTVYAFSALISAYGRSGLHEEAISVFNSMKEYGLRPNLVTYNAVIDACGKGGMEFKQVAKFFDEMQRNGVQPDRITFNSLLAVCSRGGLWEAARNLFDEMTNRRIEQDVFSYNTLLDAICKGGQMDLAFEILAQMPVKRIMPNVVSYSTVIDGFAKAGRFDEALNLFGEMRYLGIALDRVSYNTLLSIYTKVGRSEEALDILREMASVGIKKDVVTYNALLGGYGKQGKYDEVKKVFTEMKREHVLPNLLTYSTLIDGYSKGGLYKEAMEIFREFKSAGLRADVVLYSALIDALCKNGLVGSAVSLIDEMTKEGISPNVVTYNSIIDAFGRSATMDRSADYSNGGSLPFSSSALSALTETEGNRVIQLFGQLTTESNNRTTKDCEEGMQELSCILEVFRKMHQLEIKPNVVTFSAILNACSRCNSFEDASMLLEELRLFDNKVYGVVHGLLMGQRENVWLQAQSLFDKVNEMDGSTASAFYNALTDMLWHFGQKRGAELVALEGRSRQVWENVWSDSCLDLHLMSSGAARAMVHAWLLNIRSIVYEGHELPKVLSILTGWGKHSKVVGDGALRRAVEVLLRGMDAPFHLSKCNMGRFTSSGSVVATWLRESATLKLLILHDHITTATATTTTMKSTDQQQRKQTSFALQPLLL
Test: split reporter; BiFC in transfected Arabidopsis mesophyll protoplasts; GUN1 with cEYFP, candidate with nEYFP; confocal microscopy after 16 h at 22 °C in the dark

Substance | binding
DJC31 fused with nEYFP (Arabidopsis thaliana) | binds
HCF145 fused with nEYFP (Arabidopsis thaliana) | binds

Results are given in words; binding and its absence hold for the method and conditions named. Binding seen in cells or lysates may run through a third protein. Binding can be weak; no strength is given.
